PMC4825987
Results are given in words; binding and its absence hold for the method and conditions named. Some results given as binding are weak or reduced against the parent protein; the word gives no strength. Sequences can lack the tags named with a protein.

Protein sequences, listed by entry. Tags and fused reporters are not part of them.
UniProt P33993: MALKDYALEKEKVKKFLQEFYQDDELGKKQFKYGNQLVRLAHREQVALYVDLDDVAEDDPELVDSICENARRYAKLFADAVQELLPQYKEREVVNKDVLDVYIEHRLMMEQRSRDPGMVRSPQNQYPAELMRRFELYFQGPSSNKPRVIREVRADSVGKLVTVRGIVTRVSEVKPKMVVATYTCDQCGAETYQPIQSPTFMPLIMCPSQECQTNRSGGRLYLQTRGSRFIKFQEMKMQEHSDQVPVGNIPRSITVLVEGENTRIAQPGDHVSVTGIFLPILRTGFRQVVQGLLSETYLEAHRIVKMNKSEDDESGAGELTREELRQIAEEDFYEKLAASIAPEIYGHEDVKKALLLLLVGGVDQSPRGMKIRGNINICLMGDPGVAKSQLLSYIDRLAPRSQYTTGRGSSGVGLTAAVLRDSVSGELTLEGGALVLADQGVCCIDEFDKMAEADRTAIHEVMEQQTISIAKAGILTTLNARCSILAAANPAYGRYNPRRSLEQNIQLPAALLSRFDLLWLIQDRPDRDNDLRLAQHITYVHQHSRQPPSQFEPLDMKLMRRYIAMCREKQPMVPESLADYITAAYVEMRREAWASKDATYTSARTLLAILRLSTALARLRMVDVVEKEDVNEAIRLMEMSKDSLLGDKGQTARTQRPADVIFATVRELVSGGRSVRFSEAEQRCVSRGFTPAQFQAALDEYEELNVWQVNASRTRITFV

Experiments:
Test in all cases: two-hybrid; Gal4 AD (pGADT7) and BD (pGBKT7) fusions co-transformed into AH109 yeast; growth on SCM-Trp-Leu-His (SCM-3) plates against SCM-Trp-Leu (SCM-2)
[1] = target: hMCM7, yeast two-hybrid fusion (human) (UniProt P33993)
[2] = target: T1, hORC1, yeast two-hybrid fusion (human) (UniProt Q13415)
T1 sequence: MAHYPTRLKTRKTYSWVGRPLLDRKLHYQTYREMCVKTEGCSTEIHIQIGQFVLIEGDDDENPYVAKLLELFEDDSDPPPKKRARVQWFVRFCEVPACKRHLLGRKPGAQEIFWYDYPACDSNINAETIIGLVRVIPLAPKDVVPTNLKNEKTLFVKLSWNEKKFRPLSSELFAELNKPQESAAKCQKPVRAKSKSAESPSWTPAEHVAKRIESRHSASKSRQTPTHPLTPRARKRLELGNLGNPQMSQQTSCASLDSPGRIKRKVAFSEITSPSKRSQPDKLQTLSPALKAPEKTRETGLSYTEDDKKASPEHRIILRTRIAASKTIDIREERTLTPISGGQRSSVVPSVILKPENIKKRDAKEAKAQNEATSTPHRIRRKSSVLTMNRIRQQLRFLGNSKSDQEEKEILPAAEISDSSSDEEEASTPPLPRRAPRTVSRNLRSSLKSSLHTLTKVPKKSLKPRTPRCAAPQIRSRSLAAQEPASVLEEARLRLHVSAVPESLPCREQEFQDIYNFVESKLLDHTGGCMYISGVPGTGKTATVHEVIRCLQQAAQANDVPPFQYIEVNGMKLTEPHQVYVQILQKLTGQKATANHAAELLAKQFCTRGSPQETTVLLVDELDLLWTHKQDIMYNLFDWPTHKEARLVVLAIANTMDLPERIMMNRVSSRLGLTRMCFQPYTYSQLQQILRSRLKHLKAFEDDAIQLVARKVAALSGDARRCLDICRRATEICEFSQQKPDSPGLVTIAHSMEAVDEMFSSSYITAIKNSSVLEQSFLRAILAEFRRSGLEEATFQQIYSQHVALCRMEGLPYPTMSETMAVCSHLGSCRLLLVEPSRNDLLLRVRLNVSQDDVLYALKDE

[3] = target: T2, hMCM3, yeast two-hybrid fusion (human) (UniProt P25205)
T2 sequence: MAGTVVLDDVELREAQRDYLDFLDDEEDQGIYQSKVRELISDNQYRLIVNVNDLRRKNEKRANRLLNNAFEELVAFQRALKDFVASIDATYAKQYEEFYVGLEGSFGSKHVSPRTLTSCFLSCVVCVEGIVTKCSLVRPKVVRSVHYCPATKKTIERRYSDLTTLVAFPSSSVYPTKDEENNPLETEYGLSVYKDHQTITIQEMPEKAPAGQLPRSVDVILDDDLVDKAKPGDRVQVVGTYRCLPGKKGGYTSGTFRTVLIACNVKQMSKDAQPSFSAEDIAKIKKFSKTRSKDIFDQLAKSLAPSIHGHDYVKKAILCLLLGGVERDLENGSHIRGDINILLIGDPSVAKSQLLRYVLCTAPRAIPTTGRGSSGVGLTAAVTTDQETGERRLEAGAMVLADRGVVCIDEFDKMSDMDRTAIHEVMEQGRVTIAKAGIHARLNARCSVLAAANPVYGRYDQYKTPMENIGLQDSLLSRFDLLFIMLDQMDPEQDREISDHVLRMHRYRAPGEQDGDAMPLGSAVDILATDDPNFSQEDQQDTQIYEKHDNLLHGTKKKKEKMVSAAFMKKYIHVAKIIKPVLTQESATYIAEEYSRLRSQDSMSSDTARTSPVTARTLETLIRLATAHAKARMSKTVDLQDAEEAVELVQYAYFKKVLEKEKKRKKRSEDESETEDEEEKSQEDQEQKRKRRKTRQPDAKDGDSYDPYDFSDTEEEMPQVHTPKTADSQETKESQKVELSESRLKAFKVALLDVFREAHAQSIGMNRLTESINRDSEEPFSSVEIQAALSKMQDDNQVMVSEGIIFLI

[4] = target: T3, hORC4, yeast two-hybrid fusion (human) (UniProt O43929)
T3 sequence: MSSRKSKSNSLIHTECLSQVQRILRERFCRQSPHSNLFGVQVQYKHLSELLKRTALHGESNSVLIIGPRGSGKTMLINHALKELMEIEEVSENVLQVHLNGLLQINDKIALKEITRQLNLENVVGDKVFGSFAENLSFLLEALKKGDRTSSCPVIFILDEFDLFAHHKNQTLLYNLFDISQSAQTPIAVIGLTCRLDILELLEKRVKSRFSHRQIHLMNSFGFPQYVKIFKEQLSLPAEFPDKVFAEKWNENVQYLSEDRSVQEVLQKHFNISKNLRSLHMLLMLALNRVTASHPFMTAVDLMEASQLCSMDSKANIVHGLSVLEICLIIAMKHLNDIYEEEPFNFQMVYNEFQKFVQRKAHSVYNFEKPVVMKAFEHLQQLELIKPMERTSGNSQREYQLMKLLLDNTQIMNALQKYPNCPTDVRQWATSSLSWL

binding [1]: binds
binding [2]: binds
binding [3]: binds
binding [4]: binds
B1: hIPI3 (WDR18, WD repeat domain 18), yeast two-hybrid fusion (protein, UniProt Q9BV38 1-432)
chain: MAAPMEVAVCTDSAAPMWSCIVWELHSGANLLTYRGGQAGPRGLALLNGEYLLAAQLGKNYISAWELQRKDQLQQKIMCPGPVTCLTASPNGLYVLAGVAESIHLWEVSTGNLLVILSRHYQDVSCLQFTGDSSHFISGGKDCLVLVWSLCSVLQADPSRIPAPRHVWSHHALPITDLHCGFGGPLARVATSSLDQTVKLWEVSSGELLLSVLFDVSIMAVTMDLAEHHMFCGGSEGSIFQVDLFTWPGQRERSFHPEQDAGKVFKGHRNQVTCLSVSTDGSVLLSGSHDETVRLWDVQSKQCIRTVALKGPVTNAAILLAPVSMLSSDFRPSLPLPHFNKHLLGAEHGDEPRHGGLTLRLGLHQQGSEPSYLDRTEQLQAVLCSTMEKSVLGGQDQLRVRVTELEDEVRNLRKINRDLFDFSTRFITRPAK
